Taken from: PubChem BioAssay AID1053208 (Peter MacCallum Cancer Centre, 2014)

Purpose: 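Synthetic lethal interactions between gene loss and doxorubicin in osteosarcoma cells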 (primary screen)
System: mouse osteosarcoma cells, early-passage culture from an engineered mouse model of fibroblastic bone tumour
Reagent: siRNA pool against mouse genes, 40 nM
Timing: about 120 h (48 h before drug, then 72 h with drug)
Conditions: doxorubicin 100 nM for 72 h, roughly 30-40% inhibitory dose
Read-out: 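Luminescent ATP signal taken as viability with or without 100 nM doxorubicin for 72 h; mean of two wells set against non-targeting siRNA and turned into robust z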
Scale: viability z-score with doxorubicin: higher = more viable cells under doxorubicin; viability z-score without drug: higher = more viable cells with knock-down alone
Call rule: 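Called active if knock-down leaves viability unchanged without drug (z within -2 to 2) but lowers it with doxorubicin (z at or under -2)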
The deposit covers about 17,000 reagents; below is a random part of them. Over the whole deposit, 788 (4.7%) are marked active. 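Calls rest on z-score classes alone; an extra cut-off of viability at most 70% of control was not applied to them.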 A number with no mark means an inactive call. Further read-outs or replicates are left out here.

| gene | combined z-score class | viability z-score with doxorubicin | viability z-score without drug |
| --- | --- | --- | --- |
| Naa16 | no change with or without drug | -0.67 | 1.52 |
| Pcdh7 | no change with or without drug | 0.79 | 0.51 |
| Cep83os | low cell count without drug only | -0.9 | -2.19 |
| Bglap3 | no change with or without drug | -1.12 | -0.51 |
| Nsfl1c | low cell count with doxorubicin only (active) | -3.15 | -0.84 |
| Zfp595 | no change with or without drug | -0.45 | -1.18 |
| Txlng | no change with or without drug | -0.22 | -0.51 |
| Mdfic | no change with or without drug | -0.79 | 0 |
| Cic | high cell count without drug only | 1.8 | 2.87 |
| 4933440M02Rik | no change with or without drug | -0.34 | -1.52 |
| Retnlb | no change with or without drug | -0.34 | -0.51 |
| Tbce | no change with or without drug | 0.67 | 1.18 |
| Fam43a | no change with or without drug | 1.12 | 1.52 |
| Mrpl33 | no change with or without drug | 0 | -1.35 |
| 9330169L03Rik | no change with or without drug | -1.57 | -1.69 |
| Or4c31 | no change with or without drug | 0.34 | -1.18 |
| Sqstm1 | high cell count with doxorubicin only | 2.81 | 1.35 |
| Tiaf2 | no change with or without drug | -1.8 | 0.51 |
| Scgb2b24 | no change with or without drug | -0.67 | -1.52 |
| Entrep2 | no change with or without drug | 0 | 1.35 |

Copied from the listing, 4 entries:
| gene | combined z-score class | viability z-score with doxorubicin | viability z-score without drug |
| --- | --- | --- | --- |
| Mdfic | no change with or without drug | -0.79 | 0 |
| Cic | high cell count without drug only | 1.8 | 2.87 |
| 4933440M02Rik | no change with or without drug | -0.34 | -1.52 |
| Retnlb | no change with or without drug | -0.34 | -0.51 |

Additional results follow:
| gene | combined z-score class | viability z-score with doxorubicin | viability z-score without drug |
| --- | --- | --- | --- |
| Gstm2 | no change with or without drug | 0.45 | -0.17 |
| Aqp12 | no change with or without drug | 0.67 | 0.17 |
| Kcnj5 | low cell count with doxorubicin only (active) | -2.02 | -1.18 |
| Ear1 | high cell count without drug only | -0.22 | 2.02 |
| Krt17 | no change with or without drug | -0.11 | -1.52 |
| Atp6v0e | no change with or without drug | 1.12 | 1.01 |
| Ubqlnl | no change with or without drug | -0.79 | -0.34 |
| Tcfl5 | no change with or without drug | 0.34 | 0.84 |
| Aadat | no change with or without drug | -1.57 | 0.17 |
| Spaca4 | no change with or without drug | 0.45 | 0.84 |
| C4bp | no change with or without drug | -0.45 | 0.17 |
| Chn1 | no change with or without drug | 0 | 0.84 |
| Arhgap24 | no change with or without drug | -1.12 | 0.51 |
| C030016D13Rik | no change with or without drug | -0.22 | 0 |
